# Data as given in the supplement of paper PMC3334620.
# The full ranking holds about 33,000 sequences; the median of “E-score (-0.5 to 0.5)” is about -0.016, and the highest 2% start at about 0.3. Some of the results follow.
# Target: T1, Yer184c (UniProt P39961)
# T1 sequence: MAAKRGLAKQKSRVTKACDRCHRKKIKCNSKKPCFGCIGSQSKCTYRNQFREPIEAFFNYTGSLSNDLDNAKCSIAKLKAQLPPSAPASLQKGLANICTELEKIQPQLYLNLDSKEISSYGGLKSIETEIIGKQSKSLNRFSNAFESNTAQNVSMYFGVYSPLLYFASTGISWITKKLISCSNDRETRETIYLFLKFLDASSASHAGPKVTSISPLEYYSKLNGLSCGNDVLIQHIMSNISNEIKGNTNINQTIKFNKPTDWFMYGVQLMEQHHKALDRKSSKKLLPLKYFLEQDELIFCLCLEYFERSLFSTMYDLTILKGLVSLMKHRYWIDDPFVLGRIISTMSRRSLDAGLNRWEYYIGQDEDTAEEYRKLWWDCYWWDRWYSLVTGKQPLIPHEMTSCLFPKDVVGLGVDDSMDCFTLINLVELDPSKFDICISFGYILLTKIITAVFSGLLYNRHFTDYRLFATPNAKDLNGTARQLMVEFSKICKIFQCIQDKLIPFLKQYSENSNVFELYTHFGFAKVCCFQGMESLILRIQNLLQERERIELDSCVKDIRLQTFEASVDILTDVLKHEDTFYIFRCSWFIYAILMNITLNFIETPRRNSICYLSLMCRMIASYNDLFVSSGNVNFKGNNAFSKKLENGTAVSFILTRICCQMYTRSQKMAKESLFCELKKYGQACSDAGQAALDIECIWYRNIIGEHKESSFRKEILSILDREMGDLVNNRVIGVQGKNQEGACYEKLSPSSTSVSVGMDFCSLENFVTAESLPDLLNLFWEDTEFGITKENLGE
# Test: PBM E-score (8-mer binding enrichment) (E-score (-0.5 to 0.5)); higher = stronger / more preferred TF binding
# Conditions: protein concentration: 100 nM; construct: GST-full length
# Procedure, shortened: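 PURExpress in vitro transcription/translation supplied GST-tagged yeast transcription factors, either full-length or DNA-binding domain. Applied at about 100-200 nM to universal all-10-mer Agilent arrays double-stranded by primer extension, the bound protein was detected with fluorescent anti-GST. E-scores, modified Wilcoxon-Mann-Whitney statistics, were given by the Universal PBM Analysis Suite to ungapped eight-base words pooled with their reverse complements after masliner normalisation.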
row,Sequence,PBM E-score
1,AAAACCCC,-0.218
2,TCTACACA,-0.0166
3,ATGGCTCC,-0.102
4,CCCGGTCG,0.0849
5,AGCTGAGA,-0.0518
6,AGCTAGAA,0.00279
7,GGACGACC,-0.0909
8,CAGCAACG,0.222
9,AAACGTTC,-0.034
10,AAATTGCC,0.168
11,GAGGCTCC,-0.045
12,TAAAGTTA,0.212
13,CCGCGACC,-0.0489
14,CGAGCTAC,-0.077
15,TACGGTCA,0.0814
16,AGGTTGCG,-0.212
17,ACCGTTGC,-0.0405
18,TCGCGGCA,0.068
19,CCTACGGC,-0.00822
20,CACGACTG,-0.288
21,ATGCGATC,0.0208
22,CATTAATC,0.0889
23,GGAGGTCA,-0.24
24,AGGACCAT,-0.148
25,GATCATAA,0.11

row,Sequence,PBM E-score
1,AAACATAC,-0.0272
2,AGTCCTAC,0.0339
3,GCGAACCA,0.0843
4,CCACGCAG,-0.0702
5,ATGAAAGG,-0.0293
6,AATTATAA,0.216
7,TACCTTGA,0.117
8,AAAGATGC,-0.0567
9,ATACCGAT,0.11
10,TAAGAAGA,0.232
11,ACCATACT,-0.0084
12,CGACTCCC,-0.0756
13,CTAATAGC,-0.155
14,AGTATGGG,-0.138
15,AAATAGGC,0.066
16,ATGTCAAG,0.00737
17,GAAGACCC,-0.23
18,TAAATGGA,0.138
19,CCCAAATA,-0.0671
20,GAGGCGCA,-0.164
21,AAGTGCGC,-0.0101
22,GTATAAAC,0.256
23,CATAAGAA,0.263
24,GGAGCCTA,0.0783
25,ATACATAG,0.0797

row,Sequence,PBM E-score
1,CATGACAG,-0.0479
2,AACTTCAA,0.166
3,ATAAAACC,-0.0255
4,CTACGCGA,-0.0696
5,ATAAGAGA,0.258
6,GTGAAATA,0.00219
7,GGACACCC,-0.23
8,GCAAGCGC,-0.0605
9,AAATGAGT,0.137
10,ACGAAAGT,0.041
11,AACCAATC,0.23
12,AAGCGAGC,0.062
13,TGGACCCA,-0.178
14,TCACGGGA,0.0331
15,AGATACAT,0.0245
16,TGACAAAA,0.126
17,TGCGCCCA,-0.225
18,ACCCCTCA,-0.264
19,GGAAAGTA,0.0581
20,CCCGTCAG,-0.276
21,AACTGTGA,0.123
22,GAACCTGA,-0.0868
23,CAGCTTAA,0.0492
24,GGACAACA,0.108
25,ACCTTCGA,-0.0968

# 37 entries from above, reformatted.
row | Sequence | PBM E-score
11 | ACCATACT | -0.0084
13 | CTAATAGC | -0.155
14 | AGTATGGG | -0.138
15 | AAATAGGC | 0.066
16 | ATGTCAAG | 0.00737
17 | GAAGACCC | -0.23
18 | TAAATGGA | 0.138
19 | CCCAAATA | -0.0671
20 | GAGGCGCA | -0.164
21 | AAGTGCGC | -0.0101
22 | GTATAAAC | 0.256
24 | GGAGCCTA | 0.0783
25 | ATACATAG | 0.0797
1 | CATGACAG | -0.0479
2 | AACTTCAA | 0.166
3 | ATAAAACC | -0.0255
4 | CTACGCGA | -0.0696
5 | ATAAGAGA | 0.258
6 | GTGAAATA | 0.00219
7 | GGACACCC | -0.23
8 | GCAAGCGC | -0.0605
9 | AAATGAGT | 0.137
10 | ACGAAAGT | 0.041
11 | AACCAATC | 0.23
12 | AAGCGAGC | 0.062
13 | TGGACCCA | -0.178
14 | TCACGGGA | 0.0331
15 | AGATACAT | 0.0245
16 | TGACAAAA | 0.126
17 | TGCGCCCA | -0.225
18 | ACCCCTCA | -0.264
19 | GGAAAGTA | 0.0581
21 | AACTGTGA | 0.123
22 | GAACCTGA | -0.0868
23 | CAGCTTAA | 0.0492
24 | GGACAACA | 0.108
25 | ACCTTCGA | -0.0968

# Carrying on:

row,Sequence,PBM E-score
1,ACACGACT,-0.0116
2,CATCGCAA,-0.152
3,CTATATTA,0.267
4,ATGACCCA,-0.243
5,CCCATAGC,-0.283
6,CCAAATTC,0.0211
7,ATTGTAGG,0.131
8,CCCTGGAG,-0.353
9,AGGGGACA,-0.194
10,CCCCCGTA,-0.366
11,GTCGGGAA,0.0333
12,TACTTCAA,0.141
13,CTACTGAA,0.0164
14,CGGGCAAG,-0.0502
15,CCTACCTC,-0.208
16,CAAGGTAC,-0.0326
17,CATGTCTC,-0.0791
18,ATAATTGC,0.11
19,CAACGTAA,-0.0874
20,CGATAAGA,0.132
21,CGTCTGAG,0.0123
22,GGTGGCAA,-0.21
23,AGAGTTGG,-0.207
24,ATACGTAC,-0.0829
25,ATTACAGA,0.213

row,Sequence,PBM E-score
1,AAGAAGTG,-0.0173
2,CGTTCATC,0.106
3,GACTTCTA,-0.124
4,AGGCAGAC,-0.139
5,ACTCGACT,-0.146
6,GAGCCCAC,-0.301
7,CCTGAACA,0.0242
8,ACGGTGGA,-0.21
9,CCTAAGTC,-0.147
10,AGTGAAAT,0.00869
11,CTGGCCTC,-0.139
12,CCTCTAAG,-0.112
13,GGGCGTAA,-0.197
14,ACTTCACC,0.18
15,AGCTTATA,-0.0237
16,CCCTGAGC,-0.00518
17,CATTGGAA,0.102
18,ACCATCAG,-0.101
19,CGGGGGAC,-0.259
20,CAAAGTAG,-0.0439
21,AATCTCCA,-0.116
22,ACTATAGG,-0.0523
23,GAGATAGA,0.152
24,TCCATGGA,0.188
25,GGCCTCTA,-0.303

row,Sequence,PBM E-score
1,TAGTGTAA,0.14
2,AAATGCAC,-0.0233
3,TATGCCCA,-0.0906
4,ATCAAGTG,-0.132
5,CCATATTA,0.117
6,AGGAGTTC,-0.14
7,AACTTCAG,0.0506
8,GGTTGAAA,0.102
9,AAGTGTAC,-0.143
10,GTGATTGA,0.128
11,CGCAAACC,0.06
12,AAACCCGA,0.215
13,ACCTGCTG,0.0141
14,AAGGAAGA,0.0122
15,CCCATGTA,-0.0592
16,CGCGAGAC,0.0392
17,AGGCATGC,0.02
18,AGCTTTCA,-0.0512
19,ACCCCGAT,-0.132
20,AATGGCCA,-0.256
21,CAAACAGC,-0.0581
22,AGCGTCGA,0.0108
23,AAGTGCTA,-0.224
24,GGTTGGAC,-0.0104
25,CGACGGTC,-0.215

row,Sequence,PBM E-score
1,TGGCTACA,-0.035
2,AAGGGAGA,-0.221
3,CAAACAAA,0.0682
4,CACCTTGC,-0.182
5,GCTGCATA,0.0945
6,GATCATGA,0.0935
7,CTCATCAC,-0.154
8,AAGGGCCA,-0.32
9,CGCGCAAA,0.177
10,TCCACTAA,0.0945
11,ACTCCTAA,-0.0919
12,CGCCCGAG,0.172
13,ATAACATA,0.0728
14,ACTGCGTA,-0.231
15,CTGGGTAA,0.00534
16,CTGCCCCA,-0.16
17,ATCGGGTG,0.155
18,ATACACGC,0.105
19,GAAACTAA,0.00372
20,GCTATGAA,0.00489
21,AACACAAT,0.139
22,ATTGTACG,0.017
